These results are taken from article PMC10593810.

No constants are given. Whether binding was seen depends on the method and setting. Binding seen in cells or lysates may run through a third protein. For part of these data: A result given as binding can be weak or reduced; the word gives no strength. For part of these data: Tags and fused reporters may be left off the sequences shown.

Test [1] has as its target T1, FLAG-YT521-B (Drosophila) (UniProt Q9VZQ1).
T1 sequence: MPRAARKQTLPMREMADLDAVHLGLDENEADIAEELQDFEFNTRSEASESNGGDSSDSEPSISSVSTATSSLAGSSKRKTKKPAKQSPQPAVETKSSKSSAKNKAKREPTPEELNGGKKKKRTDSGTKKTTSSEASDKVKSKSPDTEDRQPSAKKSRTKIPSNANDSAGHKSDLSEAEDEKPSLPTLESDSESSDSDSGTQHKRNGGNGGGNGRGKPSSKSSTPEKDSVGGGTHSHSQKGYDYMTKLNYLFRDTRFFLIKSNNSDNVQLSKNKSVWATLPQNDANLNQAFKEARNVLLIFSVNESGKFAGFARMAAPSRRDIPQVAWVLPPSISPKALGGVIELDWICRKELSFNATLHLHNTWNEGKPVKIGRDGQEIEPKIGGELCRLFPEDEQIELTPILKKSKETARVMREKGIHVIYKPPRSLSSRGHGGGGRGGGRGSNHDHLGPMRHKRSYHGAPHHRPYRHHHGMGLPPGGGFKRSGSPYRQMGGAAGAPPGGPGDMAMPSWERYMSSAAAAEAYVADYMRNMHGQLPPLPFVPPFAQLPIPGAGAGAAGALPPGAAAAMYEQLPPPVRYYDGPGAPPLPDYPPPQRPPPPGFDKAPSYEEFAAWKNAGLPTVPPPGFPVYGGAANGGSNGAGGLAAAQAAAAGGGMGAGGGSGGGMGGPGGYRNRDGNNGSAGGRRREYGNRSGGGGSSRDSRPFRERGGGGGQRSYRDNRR
Put plainly: co-IP; HEK293T co-transfected with a FLAG-tagged and a Myc-tagged plasmid, 48 h; lysis buffer 50 mM Tris-HCl pH 7.5, 150 mM NaCl, 0.5% Triton X-100, 1 mM PMSF; precipitated on anti-FLAG M2 gel at 4 °C; western blotting. (Immunoblotting shows a protein as a band on a membrane.)

Test [2] deals with T2, FLAG-Mettl14 (Drosophila) (UniProt Q9VLP7).
T2 sequence: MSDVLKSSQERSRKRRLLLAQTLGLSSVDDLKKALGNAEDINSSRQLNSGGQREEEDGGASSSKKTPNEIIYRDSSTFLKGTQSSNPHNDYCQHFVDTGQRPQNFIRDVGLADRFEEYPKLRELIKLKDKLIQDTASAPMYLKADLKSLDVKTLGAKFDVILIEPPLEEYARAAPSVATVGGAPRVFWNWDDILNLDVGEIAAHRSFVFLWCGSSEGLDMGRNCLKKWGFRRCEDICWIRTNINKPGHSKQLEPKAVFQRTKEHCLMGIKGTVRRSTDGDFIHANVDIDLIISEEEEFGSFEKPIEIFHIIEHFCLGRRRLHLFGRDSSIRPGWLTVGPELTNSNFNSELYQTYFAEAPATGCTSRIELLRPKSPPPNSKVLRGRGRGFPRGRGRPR
The description is as above.

Test [3] addresses FLAG-BuGZ (FLAG-tagged BuGZ protein-trap reporter line, midgut) (Drosophila). Put plainly: co-IP; BuGZ-FLAG fly midguts (young and aged), lysed in 1% PBST; FLAG-BuGZ precipitated on anti-FLAG M2 gel at 4 °C; western blotting for endogenous Ime4 or Mettl14; same level of precipitated FLAG-BuGZ loaded.

With Myc-BuGZ^FL (Drosophila), the values for the binding result in test [1] and in test [2] were “no binding” and “binds”, respectively.

B1: endogenous Mettl14 (Drosophila midgut) (protein, UniProt Q9VLP7 1-397)
chain: T2 sequence
Consider B1, for which the binding result in test [3] is “binds”.
